The record followed here is US11028061B2, “Modulators of myocyte lipid accumulation and insulin resistance and methods of use thereof” (Sanford Burnham Prebys Medical Discovery Institute, priority 2015, dated 2021).

This data set deals with human skeletal myotubes. Put plainly: Quantitative lipidomic analyses and TAG biosynthesis pathway modeling. It counts as cell-based. To be noted: for K1, contribution of de novo glycerolphosphate biosynthetic pathway to TAG pool / K2, contribution of monoacylglycerol reacylation pathway to TAG pool / K3, contribution of pathway K3 to TAG pool: 10 μM SBI-477, 24 hours. How it is done:
Quantitative lipidomic analyses was performed on human skeletal myotubes exposed to bovine albumin serum (BSA) or 100 μM oleate in the presence of DMSO vehicle (white bars) or 10 μM SBI-477 (black bars) for 24 hours.
Primary human myotubes were treated with BSA or 100 μM oleate with 10 μM SBI-477 or a vehicle control for 24 hours. The cells were added to […] in an Eppendorf tube and homogenized for 1 minute using a disposable soft tissue homogenizer. A 25 μL aliquot was used to determine the protein content (BCA protein assay kit, Thermo Scientific, Rockford, Ill.). The remaining homogenate was accurately transferred into a disposable glass culture test tube, and a mixture of lipid internal standards was added prior to lipid extraction for quantification of all reported lipid species. Lipid extraction was performed by using a modified Bligh and Dyer procedure as described previously (Wang and Han, 2014). Each lipid extract was resuspended into a volume of 500 μL of chloroform/methanol (1:1, v/v) per mg of protein and flushed with nitrogen, capped, and stored at −20° C. for lipid analysis. For ESI direct infusion analysis, lipid extract was further diluted to a final concentration of ˜500 fmol/μL, and the mass spectrometric analysis was performed on a QqQ mass spectrometer (Thermo TSQ VANTAGE, San Jose, Calif.) equipped with an automated nanospray device (TriVersa NanoMate, Advion Bioscience Ltd., Ithaca, N.Y.).
Intracellular TAG can be formed through reacylation of DAG species generated from several pathways including a de novo glycerolphosphate biosynthetic pathway that involves dephosphorylation of phosphatidic acid (DAGPA), reacylation of monoacylglycerol (DAGMAG), and to a lesser extent, hydrolysis of phosphatidyl inositol (DAGPI). To explore the effects of SBI-477 on specific TAG biosynthesis pathways, a bioinformatics lipidomics modeling approach was used as previously described (Han, et al., Lipid Res. 2013; 54(4):1023-1032). This approach uses the individual TAG ion profile, as determined by mass spectrometry, to predict the relative contribution of each pathway to the overall cellular TAG pool. Experiments were conducted in skeletal myocytes in the absence and presence of oleate loading.

Structures are written as SMILES.

On to `COc1ccc(-c2csc(NC(=O)c3ccc(OCC(=O)N4CCOCC4)c(OC)c3)n2)cc1` [Cpd. 7, 3-methoxy-N-(4-(4-methoxyphenyl)thiazol-2-yl)-4-(2-morpholino-2-oxoethoxy)benzamide], for which, for the setting “BSA”, the “K1, contribution of de novo glycerolphosphate biosynthetic pathway to TAG pool” value stood at 0.50 ± 0.08; the “K2, contribution of monoacylglycerol reacylation pathway to TAG pool” value is on record as 0.44 ± 0.10; the “K3, contribution of pathway K3 to TAG pool” value is 0.05 ± 0.03. For the setting “Oleate”, the “K1, contribution of de novo glycerolphosphate biosynthetic pathway to TAG pool” value is reported as 0.36 ± 0.03; the “K2, contribution of monoacylglycerol reacylation pathway to TAG pool” value was determined as 0.63 ± 0.03; the “K3, contribution of pathway K3 to TAG pool” value is recorded as 0.01 ± 0.02. Besides, the “Increase of monoacylglycerol reacylation pathway (K2) contribution” value (absence of exogenous oleic acid) is listed as 10 fold.
